In patent US9517222B2, “Method for the treatment of senile dementia of the Alzheimer's type” (Phenomenome Discoveries Inc., priority 2007, dated 2016):

Assay: Serum ethanolamine phospholipid levels in human cohorts (dementia severity, post-mortem pathology, age) by flow-injection MS/MS

In the case of `CCCCC/C=C\C/C=C\C/C=C\C/C=C\CCCC(=O)O` [Metabolite M26, Free 20:4], the “Ratio of serum levels” value (AD, All to CN, Male) is reported as 0.978, the “Ratio of serum levels” value (ADAS 5-19 to CN, Male) is reported as 1.023 and the “Ratio of serum levels” value (ADAS 20-39 to 5-19, Male) is reported as 0.946. For the same compound, the “Ratio of serum levels” value (ADAS 20-39 to CN, Male) was 0.968, the “Ratio of serum levels” value (ADAS 40-70 to 5-19, Male) was 0.887 and the “Ratio of serum levels” value (ADAS 40-70 to 20-39, Male) was 0.937. For the same compound, the “Ratio of serum levels” value (ADAS 40-70 to CN, Male) was 0.907, the “Serum level, Mean” value (Cognitive Normal, Female) was 0.069 and the “Average serum level, Mean” value (Cognitive Normal, Male) was 0.072. For the same compound, the “Serum level, Mean” value (Post Mortem Ctl, Male) was 0.073, the “Serum level, Mean” value (Post Mortem SDAT Male) was 0.050 and the “Ratio of serum levels” value (Post mortem SDAT vs Control, Male) was 0.684. The “Serum level, Mean” value (SDAT, ADAS 5-19, Female) was 0.076, the “Average serum level, Mean” value (SDAT, ADAS 5-19, Male) was 0.074 and the “Serum level, Mean” value (SDAT, ADAS 20-39, Female) was 0.072. For the same compound, the “Average serum level, Mean” value (SDAT, ADAS 20-39, Male) was 0.070, the “Serum level, Mean” value (SDAT, ADAS 40-70, Female) was 0.072 and the “Average serum level, Mean” value (SDAT, ADAS 40-70, Male) was 0.065. The “Serum level, Mean” value (SDAT_all, Female) was 0.073, the “Average serum level, Mean” value (SDAT_all, Male) was 0.070 and the “Ratio, ADAS 5-19 to CN, Female” value (serum level ratio, females, ADAS 5-19 vs CN) was 1.092. For the same compound, the “Ratio, ADAS 20-39 to 5-19, Female” value (serum level ratio, females, ADAS 20-39 vs ADAS 5-19) was 0.955, the “Ratio, ADAS 20-39 to CN, Female” value (serum level ratio, females, ADAS 20-39 vs CN) was 1.043 and the “Ratio, ADAS 40-70 to 5-19, Female” value (serum level ratio, females, ADAS 40-70 vs ADAS 5-19) was 0.954. For the same compound, the “Ratio, ADAS 40-70 to 20-39, Female” value (serum level ratio, females, ADAS 40-70 vs ADAS 20-39) was 0.998, the “Ratio, ADAS 40-70 to CN, Female” value (serum level ratio, females, ADAS 40-70 vs CN) was 1.041 and the “Ratio, 50-59 vs. 40-49, Female” value (serum level ratio, females, age 50-59 vs 40-49) was 1.003. For the same compound, the “Ratio, 60-69 vs. 40-49, Female” value (serum level ratio, females, age 60-69 vs 40-49) was 1.021, the “Ratio, 70+ vs. 40-49, Female” value (serum level ratio, females, age 70+ vs 40-49) was 1.159 and the “Ratio, AD, All to CN, Female” value (serum level ratio, females, all AD vs cognitively normal) was 1.056. For the same compound, the “Ratio, Autopsy AD vs. Control, Female” value (serum level ratio, females, autopsy AD vs control) was 1.123, the “Ratio, 50-59 vs. 40-49, Male” value (serum level ratio, males, age 50-59 vs 40-49) was 1.175 and the “Ratio, 60-69 vs. 40-49, Male” value (serum level ratio, males, age 60-69 vs 40-49) was 1.324. The “Ratio, 70+ vs. 40-49, Male” value (serum level ratio, males, age 70+ vs 40-49) was 1.389, the “Mean serum level, Age Ctl, 30-39, Female” value (serum, females, age 30-39) was 0.091 and the “Mean serum level, Age Ctl, 40-49, Female” value (serum, females, age 40-49) was 0.093. For the same compound, the “Mean serum level, Age Ctl, 50-59, Female” value (serum, females, age 50-59) was 0.093, the “Mean serum level, Age Ctl, 60-69, Female” value (serum, females, age 60-69) was 0.094 and the “Mean serum level, Age Ctl, 70+, Female” value (serum, females, age 70+) was 0.107. For the same compound, the “Mean serum level, Post Mortem SDAT, Female” value (serum, females, post mortem SDAT) was 0.061, the “Mean serum level, Post Mortem Ctl, Female” value (serum, females, post mortem control) was 0.054 and the “Mean serum level, Age Ctl, 30-39, Male” value (serum, males, age 30-39) was 0.091. The “Mean serum level, Age Ctl, 40-49, Male” value (serum, males, age 40-49) was 0.082, the “Mean serum level, Age Ctl, 50-59, Male” value (serum, males, age 50-59) was 0.096 and the “Mean serum level, Age Ctl, 60-69, Male” value (serum, males, age 60-69) was 0.109. The “Mean serum level, Age Ctl, 70+, Male” value (serum, males, age 70+) was 0.114.

Some values come without a unit; they compare only within their column.
